This note sets out measurements from PMC10906868.

The chains behind the UniProt entries cited, without tags or fusion partners.
UniProt P60122: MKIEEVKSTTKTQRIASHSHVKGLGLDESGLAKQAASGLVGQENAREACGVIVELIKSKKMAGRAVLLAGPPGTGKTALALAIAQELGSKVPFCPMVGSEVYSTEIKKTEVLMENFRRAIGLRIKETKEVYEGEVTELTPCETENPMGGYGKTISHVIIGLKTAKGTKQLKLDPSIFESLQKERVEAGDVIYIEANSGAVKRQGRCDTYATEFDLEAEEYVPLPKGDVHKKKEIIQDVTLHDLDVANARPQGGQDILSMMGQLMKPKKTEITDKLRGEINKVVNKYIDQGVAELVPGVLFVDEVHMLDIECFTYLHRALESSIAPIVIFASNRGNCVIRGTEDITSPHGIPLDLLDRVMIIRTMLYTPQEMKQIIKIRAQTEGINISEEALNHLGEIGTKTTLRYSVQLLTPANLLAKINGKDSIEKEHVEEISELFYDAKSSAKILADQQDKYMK
UniProt Q6ZQF0: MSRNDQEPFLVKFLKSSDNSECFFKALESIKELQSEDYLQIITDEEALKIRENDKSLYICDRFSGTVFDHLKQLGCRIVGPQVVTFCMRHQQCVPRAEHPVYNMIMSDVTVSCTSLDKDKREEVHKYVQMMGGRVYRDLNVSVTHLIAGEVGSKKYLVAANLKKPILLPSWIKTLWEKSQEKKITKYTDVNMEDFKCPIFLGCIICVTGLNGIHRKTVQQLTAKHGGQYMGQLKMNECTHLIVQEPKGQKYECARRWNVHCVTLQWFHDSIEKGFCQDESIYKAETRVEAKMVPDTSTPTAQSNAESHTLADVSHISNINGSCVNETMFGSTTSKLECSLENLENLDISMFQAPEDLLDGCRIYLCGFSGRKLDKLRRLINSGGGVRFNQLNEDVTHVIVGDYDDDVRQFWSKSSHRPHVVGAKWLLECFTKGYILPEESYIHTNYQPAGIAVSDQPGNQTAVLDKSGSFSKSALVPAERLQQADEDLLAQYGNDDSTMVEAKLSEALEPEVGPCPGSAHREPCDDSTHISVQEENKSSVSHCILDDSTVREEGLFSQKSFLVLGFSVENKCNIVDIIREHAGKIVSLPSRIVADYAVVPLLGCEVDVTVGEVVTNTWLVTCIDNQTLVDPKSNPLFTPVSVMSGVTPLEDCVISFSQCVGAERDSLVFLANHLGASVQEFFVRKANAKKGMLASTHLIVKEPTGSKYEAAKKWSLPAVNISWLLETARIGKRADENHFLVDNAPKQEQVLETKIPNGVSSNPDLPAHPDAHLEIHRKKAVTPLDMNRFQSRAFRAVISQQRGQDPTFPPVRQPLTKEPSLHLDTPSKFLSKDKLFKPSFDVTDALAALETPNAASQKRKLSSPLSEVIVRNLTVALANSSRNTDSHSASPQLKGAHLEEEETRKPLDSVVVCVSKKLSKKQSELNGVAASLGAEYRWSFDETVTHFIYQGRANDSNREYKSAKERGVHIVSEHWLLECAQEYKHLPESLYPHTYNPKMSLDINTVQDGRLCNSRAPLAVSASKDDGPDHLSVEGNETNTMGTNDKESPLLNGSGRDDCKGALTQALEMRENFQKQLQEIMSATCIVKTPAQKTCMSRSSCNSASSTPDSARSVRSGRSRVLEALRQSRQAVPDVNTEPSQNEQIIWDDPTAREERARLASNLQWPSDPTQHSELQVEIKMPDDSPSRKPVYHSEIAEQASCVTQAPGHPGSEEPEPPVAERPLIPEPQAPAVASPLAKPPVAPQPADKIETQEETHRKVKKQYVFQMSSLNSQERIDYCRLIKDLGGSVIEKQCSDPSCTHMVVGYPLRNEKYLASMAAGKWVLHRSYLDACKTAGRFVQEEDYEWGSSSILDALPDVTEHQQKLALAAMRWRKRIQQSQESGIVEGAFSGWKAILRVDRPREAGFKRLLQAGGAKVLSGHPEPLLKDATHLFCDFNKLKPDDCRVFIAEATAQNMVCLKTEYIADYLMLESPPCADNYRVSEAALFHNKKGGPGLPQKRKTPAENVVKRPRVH
UniProt Q9D5P4: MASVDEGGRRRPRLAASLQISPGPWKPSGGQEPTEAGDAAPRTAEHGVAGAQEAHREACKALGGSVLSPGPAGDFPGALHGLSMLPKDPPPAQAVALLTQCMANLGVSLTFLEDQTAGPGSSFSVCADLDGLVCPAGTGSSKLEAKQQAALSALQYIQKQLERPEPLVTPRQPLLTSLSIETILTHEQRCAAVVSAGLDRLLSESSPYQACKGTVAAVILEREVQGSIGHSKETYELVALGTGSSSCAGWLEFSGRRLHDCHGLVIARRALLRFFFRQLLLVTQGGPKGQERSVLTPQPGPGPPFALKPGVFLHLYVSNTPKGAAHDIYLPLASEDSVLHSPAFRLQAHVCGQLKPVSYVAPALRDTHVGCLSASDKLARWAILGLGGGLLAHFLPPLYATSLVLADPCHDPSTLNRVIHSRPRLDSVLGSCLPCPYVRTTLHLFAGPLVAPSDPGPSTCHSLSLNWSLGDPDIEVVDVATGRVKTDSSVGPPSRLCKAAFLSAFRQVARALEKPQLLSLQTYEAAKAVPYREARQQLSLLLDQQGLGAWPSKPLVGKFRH

For assay [1], the target named is T1, FANCJ-HA (endogenous FANCJ with C-terminal 6xHis-HA epitope tag, Fancj^HA allele) (mouse (endogenous in testis)) (UniProt Q5SXJ3).
T1 sequence: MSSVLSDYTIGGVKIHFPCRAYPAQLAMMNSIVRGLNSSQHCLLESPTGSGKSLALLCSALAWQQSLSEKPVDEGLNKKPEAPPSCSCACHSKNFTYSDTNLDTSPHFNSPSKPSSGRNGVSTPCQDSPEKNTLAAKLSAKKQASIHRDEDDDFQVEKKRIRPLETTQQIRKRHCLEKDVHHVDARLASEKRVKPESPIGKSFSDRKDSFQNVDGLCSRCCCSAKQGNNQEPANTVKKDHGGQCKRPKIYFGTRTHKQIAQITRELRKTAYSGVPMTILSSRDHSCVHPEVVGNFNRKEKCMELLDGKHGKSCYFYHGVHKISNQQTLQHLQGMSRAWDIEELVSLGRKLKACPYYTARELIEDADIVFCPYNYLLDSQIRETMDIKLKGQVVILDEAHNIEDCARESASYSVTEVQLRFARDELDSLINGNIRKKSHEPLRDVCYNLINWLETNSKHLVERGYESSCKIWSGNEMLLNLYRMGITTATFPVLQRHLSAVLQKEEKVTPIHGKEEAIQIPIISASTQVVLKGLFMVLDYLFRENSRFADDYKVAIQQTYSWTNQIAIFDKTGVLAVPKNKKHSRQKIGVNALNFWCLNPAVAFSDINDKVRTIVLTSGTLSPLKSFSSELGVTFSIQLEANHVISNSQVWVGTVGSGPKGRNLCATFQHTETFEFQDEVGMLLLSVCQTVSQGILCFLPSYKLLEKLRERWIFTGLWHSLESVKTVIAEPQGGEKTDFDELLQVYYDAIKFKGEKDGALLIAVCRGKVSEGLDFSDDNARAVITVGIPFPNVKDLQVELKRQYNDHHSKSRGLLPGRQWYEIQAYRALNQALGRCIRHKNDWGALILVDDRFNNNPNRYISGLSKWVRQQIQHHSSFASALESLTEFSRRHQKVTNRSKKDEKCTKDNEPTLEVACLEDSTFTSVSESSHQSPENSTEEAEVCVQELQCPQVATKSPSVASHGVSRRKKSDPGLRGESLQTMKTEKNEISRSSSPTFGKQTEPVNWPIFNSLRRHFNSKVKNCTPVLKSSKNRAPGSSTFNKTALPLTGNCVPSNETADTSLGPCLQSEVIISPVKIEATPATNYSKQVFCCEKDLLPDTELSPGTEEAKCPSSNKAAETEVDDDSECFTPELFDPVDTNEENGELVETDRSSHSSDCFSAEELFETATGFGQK
In words: co-IP; anti-HA (magnetic beads) immunoprecipitation from Fancj^HA/HA whole testis lysate (Fancj+/+ as control), Tris lysis buffer with 0.2% NP-40, 150 mM NaCl, overnight at 4°C, western blot. Background: Immunoblotting shows a protein as a band on a membrane.

Assay [2] has as its target T2, FANCJ (BRCA1 Interacting Protein 1, BRIP1), endogenous wild-type protein in mouse testis (mouse (endogenous in testis)) (UniProt Q5SXJ3).
T2 sequence: T1 sequence
Nature of the assay: co-IP; anti-FANCJ (custom rabbit polyclonal, Dynabeads protein A) immunoprecipitation from mouse whole testis lysate (Fancj+/+; Fancj-/- and IgG as controls), Tris lysis buffer with 0.2% NP-40, 150 mM NaCl, overnight at 4°C, western blot.

Results are given in words; binding and its absence hold for the method and conditions named. Binding seen in cells or lysates may run through a third protein. For part of these data: Where a sequence is shown, tags or fusion partners need not be part of it.

RUVBL1 (from UniProt P60122 1-456): the binding result in assay [1] and in assay [2] was “no binding” in each case.
For the molecule TOPBP1 (from UniProt Q6ZQF0 1-1515), the binding entry in assay [1] is “no binding”.
Turning to ADAD2 (from UniProt Q9D5P4 1-561), the binding entry in assay [1] and in assay [2] was “no binding” throughout.

B1: USP4 (protein, UniProt P35123 1-962)
chain: MAEGRGSRERPDVETQKTELGALMGTTLQRGAQWYLIDSRWFKQWKKYVGFDSWDMYNVGEHNLFPGPIDNSGLFSDPESQTLKEHLIDELDYVLVPAEAWNKLLNWYGCVEGQQPIVRKVVEHGLFVKHCKVEVYLLELKLCENSDPTNVLSCHFSKADTIATIEKEMRKLFNIPAERETRLWNKYMSNTYEQLSKLDNTIQDAGLYQGQVLVIEPQNEDGTWPRQSLQSKSSTAPSRNFTTSSKPSASPYCSVSASLIANGDSTNSSGMHSSGVSRGGSGFSASYNCQEPPSPHIQPGLCGLGNLGNTCFMNSALQCLSNTAPLTEYFLKDEYEAEINRDNPLGMKGEIAEAYAELIKQMWSGRDTHVAPRMFKTQVGRFAPQFSGYQQQDSQELLAFILDGLHEDLNRVKKKPYLEPKDANGRPDAVVAKEAWENHRLRNDSVIVDTFHGLFKSTLVCPECAKVSVTFDPFCYLTLPLPLKKDRIMEVFLVPADPQCRPIQYRVTVPLMGAISDLCEALSKLSGIAAENMVVTDVYNHRFHKIFQMDEGLSHITPRDDIFVYEVCNTSMDGSECITLPVYFREKKSRPSSASSGAVLYGQPLLVSVPKHKLTLESLYQAVCDRISRYIKQPLPDEFLSSPLEPGACNGSRSSYEGDEEEEMDHQEEGKEQLSEVEGSGEDDQGDDHSESAQKVKGQPRHKRLFTFSLVNSCGTADINSLATDGKLLKLNSRSTLAIDWDSETRSLYFDEQESEACEKHLSMSQPQKKKKAAVALRECIELFTTMETLGEHDPWYCPTCKKHQQATKKFDLWSLPKILVVHLKRFSYNRYWRDKLDTVVEFPVRALNMSEFVCDRSARPYVYDLIAVSNHYGAMGVGHYTAYAKNRLNGKWYYFDDSSVSLASEDQIVTKAAYVLFYQRRDDECSSTSSLGSFPGSDGGVKLSSSHQGMGDEEAYNMDTN
For B1, the binding entry in assay [1] and in assay [2] was “no binding” throughout.

B2: ATRIP (protein, UniProt Q8BMG1 1-785)
chain: MAGTPAPNSHRKQSGGLEPFPGLSRSIENPPSKRARSFSETTVPDPEDPFGEHAEFTADDLEELDILASQALSQCPVAPRNLSSAHKVRRLDGLPNSPIRKSREDIPVKDNFELEVLQIQYKELKEKLKAMEEEILIKNGEIKILRDSLRQTESVLEEQKRSHFLLEQEKTQALSEKEKEFSRKLQSLQSELQFKDAEMNELRTKSQSNGRTNKPAAPSVSHVSPRKGSSVVLKSEACSPHVGKTTFPTKESFSANTPLFHPCQTEAGHRFLVGQEVSDNKNHSLGGSLMKQDVQQRILADGWMQRKDAQGSILINLLLKQPLVPGSSLGLCHLLSSCPEVPTGTLLQPPGLSTLPGTSGLRTISSSDGPFSPSALREAQNLAFTGLNLVARTESSHDGDMAGRRVFPLHQLPGAVHLLPLVQFFVGLHCQALQDLAPAKKSGVPGDSATHTSCMSSGVEASPEDSIHGLESFSVASLSVLQNLVCHSGAVVCLLLSGMGTEAAAREGNLVQTCADTTSASREDAHDQDQHPLLKMLLQLMASSSAASGHFQASVLGLCLKVLVKLAENASSDLLPRFSCVFPVLPQCLGSALPLPCVLLAVELLSVLLDHDSLAWQLCSHPEGCLLLRLYMYITSRPDRTASETQWLQLEQEVVWLLAKLSVQSPAPAGIGSDCHCNVEAVRALTVMLHRQWLTVRRAGGPRTHQQKQTIRCLRDTVLLLHSLSQKDKLFTVHCVEVLHQYDQVMPGVSMLIRALPDVTDCEEAALDDLCAAETDLEDSEMDCN
With B2, the binding entry in assay [1] and in assay [2] was “no binding” in each case.
